PubChem BioAssay AID1259331, Drosophila RNAi Screening Center | 2017

Assay: 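Fly transmembrane-protein genes that affect zinc toxicity in cultured cells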 (primary screen)
System: Drosophila S2R+ cells
Reagent: long dsRNA against Drosophila genes
Timing: 5 days (4 days knock-down, then 1 day zinc)
Challenge: zinc chloride at 15 mM final level for 1 day
Measurement: 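Luminescent ATP assay standing in for viability; Z score is the mean over three replicate plates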
Scale: mean Z score: higher = more ATP than other wells, better survival under zinc; ATP luminescence: higher = more ATP, more viable cells
Hit rule: 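Hit when the absolute Z score is greater than 1.5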
Meaning of the calls: active = hit, ATP up or down; inactive = not a hit
This is a random part of about 3,100 reagents. 126 of them (4.1%) were called active. 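Calls are per reagent; zinc was so toxic that few knock-downs lowered ATP further, so most hits raise ATP.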 The raw values are shown without normalisation. Unmarked entries are inactive. Names joined by + are all predicted targets of the reagent. Not stated in the record: the amount of reagent.

gene,dsRNA,mean Z score,"ATP luminescence, replicate 1","ATP luminescence, replicate 2"
ATP8B (ATPase 8B),DRSC14961,-0.284,35942,49640
CG33639,DRSC22820,-0.733,39285,40322
CG33639,DRSC23778,-0.0172,53710,56053
KdelR (KDEL receptor),DRSC03353,0.0427,56377,57295
CG30047,DRSC05340,-0.839,28999,31664
CG14053,DRSC17908,-0.658,55213,55061
CG14053,DRSC39512,0.099,53225,50686
Ptp10D (Protein tyrosine phosphatase 10D),DRSC20272,0.696,74133,81110
Ptp10D (Protein tyrosine phosphatase 10D),DRSC36634,-0.442,41753,38325
Ptp10D (Protein tyrosine phosphatase 10D),DRSC36635,-0.596,43059,40149
Tsp42Ej (Tetraspanin 42Ej),DRSC06113,0.239,50018,45483
Tsp42Ej (Tetraspanin 42Ej),DRSC28269,-0.431,41548,68178
cue (cueball),DRSC08248,-0.504,30850,26805
cue (cueball),DRSC39507,0.335,55059,58334
RFeSP (Rieske iron-sulfur protein),DRSC00702,-0.235,41753,43777
RFeSP (Rieske iron-sulfur protein),DRSC27607,-0.673,49172,43554
Oatp30B (Organic anion transporting polypeptide 30B),DRSC02727,-0.0338,55110,56413
Oatp30B (Organic anion transporting polypeptide 30B),DRSC39872,-0.646,46055,49435
Inx2 (Innexin 2),DRSC18783,-0.463,40639,41599
Inx2 (Innexin 2),DRSC24455,-0.121,49812,55779
chk (chaski),DRSC04994,-0.321,27833,31073
CG9304,DRSC04538,-0.417,43976,35033
CG9304,DRSC26210,0.1,57785,56105
Gr98d (Gustatory receptor 98d),DRSC14571,0.023,67063,65783
Gr98d (Gustatory receptor 98d),DRSC24547,-0.21,48835,52967
Myd88,DRSC06815,-0.685,25159,24491
Myd88,DRSC39905,-0.696,45320,55693
sit (stuck in traffic),DRSC15760,0.0984,43022,56122
sit (stuck in traffic),DRSC25250,0.139,60152,62638
CG30345,DRSC05144,-0.00957,39902,47250
CG30345,DRSC39521,-0.234,43043,50018
Elk (Eag-like K[+] channel),DRSC07608,-0.412,25413,31896
Elk (Eag-like K[+] channel),DRSC39479,-0.0571,50241,52367
CG2698,DRSC15447,-0.0709,36798,56966
CG2698,DRSC39597,-0.144,56756,56859
Prip,DRSC07044,-0.536,29873,25828
Prip,DRSC26459,0.625,71453,64319
CG4928,DRSC19342,0.00932,45285,45748
CG4928,DRSC29007,-0.299,60426,53087
G6P (Glucose-6-Phosphatase),DRSC00414,-0.513,41325,40811
G6P (Glucose-6-Phosphatase),DRSC27121,-0.497,44685,53364
ppk16 (pickpocket 16),DRSC02736,0.0718,54184,42679

Only “mean Z score” (11 entries from above):
CG30047 [DRSC05340] = -0.839
CG14053 [DRSC17908] = -0.658
CG14053 [DRSC39512] = 0.099
Ptp10D (Protein tyrosine phosphatase 10D) [DRSC20272] = 0.696
Ptp10D (Protein tyrosine phosphatase 10D) [DRSC36634] = -0.442
Ptp10D (Protein tyrosine phosphatase 10D) [DRSC36635] = -0.596
Tsp42Ej (Tetraspanin 42Ej) [DRSC06113] = 0.239
Tsp42Ej (Tetraspanin 42Ej) [DRSC28269] = -0.431
cue (cueball) [DRSC08248] = -0.504
cue (cueball) [DRSC39507] = 0.335
RFeSP (Rieske iron-sulfur protein) [DRSC00702] = -0.235

The results go on:
gene,dsRNA,mean Z score,"ATP luminescence, replicate 1","ATP luminescence, replicate 2"
Atf-2 + CG44247,DRSC04130,0.404,33044,35239
Atf-2 + CG44247,DRSC04413,0.107,50921,40485
Ephrin,DRSC17165,-0.421,64851,53173
Ephrin,DRSC39417,-0.637,47754,32703
Ephrin,DRSC39418,-0.0538,39820,58608
CG8237,DRSC07119,-0.446,26719,29976
CG8237,DRSC26686,2.18 (active),90247,94285
PGRP-LA (Peptidoglycan recognition protein LA),DRSC10327,-0.216,69361,59500
PGRP-LA (Peptidoglycan recognition protein LA),DRSC10414,2.08 (active),68399,70201
Ir60b (Ionotropic receptor 60b),DRSC04217,-0.12,49829,41413
Tsp47F (Tetraspanin 47F),DRSC07325,7.72 (active),2.12e5,2.18e5
jef (jet fuel),DRSC06198,-0.0466,67221,75604
jef (jet fuel),DRSC24815,0.046,61135,57905
"mAChR-A (muscarinic Acetylcholine Receptor, A-type)",DRSC28262,-0.0264,61249,60718
Trc8 (TRC8 ring finger protein),DRSC15437,-0.341,41206,43639
Trc8 (TRC8 ring finger protein),DRSC28575,-0.366,55933,55563
CG5592,DRSC10524,-0.259,79017,60289
CG5592,DRSC39427,0.257,57580,50498
CG13077,DRSC02181,-0.0365,46177,38668
CG13077,DRSC39515,-0.166,52521,47435
5-HT1A (5-hydroxytryptamine (serotonin) receptor 1A),DRSC05030,0.167,70476,73443
5-HT1A (5-hydroxytryptamine (serotonin) receptor 1A),DRSC26404,-0.347,59329,50583
Vha16-2 (Vacuolar H[+] ATPase 16kD subunit 2),DRSC10873,-0.293,71453,54356
Vha16-2 (Vacuolar H[+] ATPase 16kD subunit 2),DRSC25504,-0.153,53961,53430
AdipoR (Adiponectin receptor),DRSC15767,-0.527,39199,40828
AdipoR (Adiponectin receptor),DRSC39443,0.000143,51476,47994
